# Measured values reported in PubChem BioAssay AID2685 (National Center for Advancing Translational Sciences (NCATS), 2010).
# Some of the results follow. The main result of the screen is listed elsewhere. These columns were measured beside it and carry no call. Compounds called inactive in the main read-out are mostly missing here. Words in brackets tell the shape of the fitted curve; partial curves, single points and poor fits give uncertain potencies.
# Assay: qHTS Assay for Lipid Storage Modulators in Drosophila S3 Cells;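 for cell number change: cells counted by Cell Tracker Red CMTPX staining in the red channel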
# Details: BODIPY lipid droplet fluorescence, 18-24 h; for cell number change: measured here: cell count max response, cells fed with added oleic acid
# Outline: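 Drosophila S3 cells got compounds at several concentrations plus oleic acid (400 uM solution). Laser-scanning cytometry with 488 nm excitation read lipid droplets at 500-530 nm and cells at 575-640 nm. Percent activity was relative to 20 uM Triacsin C.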
# [1] = measured here: cell number channel AC50, cells fed with added oleic acid
# [2] = measured here: lipid fluorescence (Fed channel) AC50, cells fed with added oleic acid
SMILES,cell number change [%],AC50 [1],AC50 [2]
CCCN1CCCc2cc(CN)ccc21,-19.5,"0.82 µM [falling, full curve, poor fit]","0.461 µM [rising, full curve, poor fit]"
CCN(CC)S(=O)(=O)c1ccc(=O)n(CC(=O)N2CCCc3cc(C)ccc32)c1,-4.9,–,"0.00651 µM [rising, full curve, poor fit]"
Cc1nn(C(C)C(=O)NCc2cccs2)c(=O)c2nn(-c3ccccc3)c(C)c12 (stereo not drawn),0.295,–,"0.58 µM [rising, single point]"
COc1ccc(NC(=O)N(Cc2cccs2)Cc2cc3cc4c(cc3[nH]c2=O)OCO4)cc1,22.3,–,"0.0231 µM [rising, full curve, poor fit]"
COc1cc(CNCCc2ccccc2)cc(Br)c1OCC(=O)Nc1ccccc1C,-53.1,–,–
Cc1ccc(/C(O)=C2/C(=O)C(=O)N(Cc3cccnc3)C2c2ccccn2)cc1 (stereo not drawn),-214,"23.1 µM [falling, partial curve]","0.82 µM [falling, full curve]"
O=c1c2oc3ccccc3c2ncn1Cc1ccc(F)cc1,7.83,–,"0.146 µM [rising, full curve, poor fit]"
CC(=O)c1c(C)oc(C)c1CSCc1ccc(C(=O)O)o1,3.34,–,"3.66 µM [falling, full curve]"
COc1ccc(NC(=O)Cn2c(=O)oc3cc(S(=O)(=O)N4CCCC4)ccc32)c(OC)c1,11.7,–,"29.1 µM [rising, partial curve, poor fit]"
CC(C)c1ccc(C(=O)NN2C(=O)C3CCCCC3C2=O)cc1 (stereo not drawn),27.1,–,"16.4 µM [rising, single point]"
COCCn1c(SCC(=O)NC2CC2)nc2ccccc21,-0.478,–,"18.4 µM [rising, single point]"
CC(C)(C)c1ccc(C(=O)Nc2cccc3ncccc23)cc1,–,–,"5.17 µM [falling, single point]"
Cc1noc(NS(=O)(=O)c2ccc(NC(=O)c3ccc(N(C)C)cc3)cc2)c1C,-32.5,"25.9 µM [falling, single point]","2.59 µM [falling, single point]"
Cc1c(-c2nc(N)nc(Nc3ccc(F)cc3)n2)oc2ccccc12,-69.5,"18.4 µM [falling, single point]","0.461 µM [rising, partial curve]"
CCOc1ccc(-c2nc(S(=O)(=O)c3ccccc3)c(N3CCC(C(N)=O)CC3)o2)cc1,14.3,–,"0.103 µM [rising, full curve, poor fit]"
Cc1c(N(C)C(=O)C2CCCN2S(=O)(=O)c2ccccc2)c(=O)n(-c2ccccc2)n1C (stereo not drawn),1.33,–,"4.11 µM [falling, partial curve, poor fit]"
Cn1cccc1/C=N/NC(=O)c1sc2ccccc2c1Cl,-1.04,–,–
O=C(c1ccc2c(c1)OCO2)N1CCN(c2ccc(C(F)(F)F)cn2)CC1,89.9,"16.4 µM [rising, partial curve]","14.6 µM [rising, partial curve]"
Cc1ccc(S(=O)(=O)c2nc(-c3ccco3)oc2N2CCC(C)CC2)cc1,-15,–,–
COc1ccc(C(=O)N/N=C(\C)c2cccc(NC(=O)c3ccc(F)cc3)c2)c(OC)c1,3.4,"6.51 µM [rising, single point]",–

# Individual results from the results shown:
# `COc1ccc(NC(=O)Cn2c(=O)oc3cc(S(=O)(=O)N4CCCC4)ccc32)c(OC)c1` | AC50 [2]: 29.1 µM [rising, partial curve, poor fit]
# `COc1ccc(NC(=O)N(Cc2cccs2)Cc2cc3cc4c(cc3[nH]c2=O)OCO4)cc1` | cell number change [%]: 22.3

# Following part

SMILES,cell number change [%],AC50 [1],AC50 [2]
CCOC(=O)C1(CC)NC(c2ccc(OC)c(OC)c2)C2C(=O)N(c3cccc(C(C)=O)c3)C(=O)C21 (stereo not drawn),-6.88,–,"0.103 µM [rising, full curve, poor fit]"
CCCCC(=O)Nc1ccccc1N1CCN(c2ccc(F)cc2)CC1,0.525,–,"29.1 µM [falling, single point]"
Cn1c(SCC(=O)NCc2ccc3c(c2)OCO3)ncc(C(=O)Nc2ccc(F)cc2)c1=O,23,–,–
CCOc1ccc(OCC)c(NC(=O)C2CCCN(S(=O)(=O)c3c(C)noc3C)C2)c1 (stereo not drawn),19.6,–,–
O=C1OCC(Cn2c3ccccc3c3ccccc32)O1 (stereo not drawn),0.749,–,–
Cc1ccc(C2NC(=O)CCC2[N+](=O)[O-])cc1 (stereo not drawn),1.09,–,"0.058 µM [falling, full curve, poor fit]"
CSc1nc2ccc(NS(=O)(=O)c3ccc4c(c3)OCCO4)cc2s1,32.2,"5.8 µM [rising, full curve, poor fit]","23.1 µM [rising, partial curve]"
CCOCC(=O)Nc1cc(C(=O)OC)ccc1C(=O)OC,-11.4,–,"0.651 µM [rising, single point]"
COc1ccc(NC2CCCN(C(=O)c3cn(C)c4ccccc34)C2)cc1 (stereo not drawn),16.8,–,"25.9 µM [rising, partial curve]"
O=[N+]([O-])c1cc(C2Nc3cccc4cccc(c34)N2)ccc1Cl,-43.6,"11.6 µM [falling, partial curve]","6.51 µM [falling, full curve, poor fit]"
CC(=O)Nc1ccc(C(=O)CN2C(=O)NC3(CCOc4ccccc43)C2=O)c(F)c1 (stereo not drawn),8.33,–,"1.84 µM [rising, partial curve, poor fit]"
N#Cc1cnn2c(-c3ccccc3)ccnc12,2.42,–,"29.1 µM [rising, single point]"
Cc1csc(SCC(=O)NC(=O)NCc2ccccc2)n1,4.53,–,"6.51 µM [rising, single point]"
CCC(=O)Nc1ccc(C(=O)OCc2ccccc2)cc1,27.8,"5.17 µM [rising, full curve, poor fit]","4.61 µM [rising, single point]"
COc1cccc(C(=O)Nc2ccc(N3CCN(C(=O)c4ccco4)CC3)cc2)c1,-4.62,–,"6.51 µM [rising, single point]"
COc1ccc(C(CNC(=O)c2cccc(S(=O)(=O)Nc3ccccc3Cl)c2)N2CCOCC2)cc1 (stereo not drawn),50,"2.06 µM [rising, partial curve]",–
O=C(c1ccc2c(=O)n(Cc3ccc(Cl)cc3)c(=S)[nH]c2c1)N1CCOCC1,13,–,–
Cc1ccc(S(=O)(=O)N2CCN(C(=O)c3ccccc3)CC2)c(C)c1NS(C)(=O)=O,-19.2,–,"18.4 µM [falling, single point]"
CCCCOCCCNC(=S)Nc1ccc(S(=O)(=O)N2CCOCC2)cc1,-21.7,–,"0.206 µM [rising, full curve, poor fit]"
COc1ccc(NC2CCCN(C(=O)CCn3cccn3)C2)cc1 (stereo not drawn),12.6,–,"6.51 µM [falling, single point]"

SMILES,cell number change [%],AC50 [1],AC50 [2]
CCOc1ccc(NC(=S)N2CCCN(Cc3cccc(Cl)c3)C2)cc1,–,"0.00461 µM [falling, full curve, poor fit]","0.00461 µM [falling, full curve, poor fit]"
Cc1ccc(OCCCCN2CCCCC2)c(Br)c1,19.8,–,–
COc1ccc(OC)c(NC(=O)c2ccc(-c3csc(C)n3)cc2)c1,-5.87,–,"16.4 µM [falling, single point]"
COc1ccc(OCCn2cc(/C=N/NC(=O)c3ccncc3)c3ccccc32)cc1,-0.706,–,"1.3 µM [rising, full curve]"
CCOC(=O)COc1cccc2c(=O)n(CC(=O)N3CCCc4ccccc43)ccc12,6.45,"0.731 µM [falling, full curve, poor fit]","1.03 µM [falling, full curve]"
CC1CCCN(c2sc(S(C)(=O)=O)nc2S(=O)(=O)c2ccc(Cl)cc2)C1 (stereo not drawn),-53.6,"29.1 µM [falling, single point]","29.1 µM [falling, single point]"
Clc1c(CSc2nc3ccccc3o2)nc2ccccn12,-7.79,"0.731 µM [rising, full curve, poor fit]","2.59 µM [rising, partial curve]"
COC(=O)c1c(NC(=O)C2=COCCO2)sc(C)c1C,36.5,"29.1 µM [rising, single point]",–
CCC(C(=O)N1CCCCCC1)n1nc(C)n2c(cc3occc32)c1=O (stereo not drawn),7.25,–,–
COc1ccc(CCC(C)N2CCc3ccccc3C2)cc1 (stereo not drawn),12.7,–,"3.66 µM [rising, full curve]"
Cc1cccn2c(=O)c3cc(C(=O)NC4CCCCCC4)sc3nc12,-8.82,–,"0.291 µM [falling, full curve, poor fit]"
COc1ccc(-c2ccc(SCC(=O)N3CC(=O)Nc4ccccc43)nn2)cc1,20.4,–,"29.1 µM [falling, single point]"
CSCCC(NC(=O)c1ccco1)C(=O)Nc1cc(C)ccn1 (stereo not drawn),–,–,"0.0731 µM [falling, full curve, poor fit]"
COCCCNc1oc(/C=C/c2ccccc2)nc1C#N,–,"0.231 µM [rising, full curve, poor fit]","29.1 µM [rising, single point]"
Cc1c(C)c2cc(Cl)c(O)c(CN3CCN(C)CC3)c2oc1=O,5.49,–,"0.651 µM [falling, single point]"
C=CCn1cc(-c2cccc(C(F)(F)F)c2)cc(C#N)c1=O,-7.56,–,–
N/C(CC(=O)NCCOc1ccccc1)=N\O,8.79,–,"6.51 µM [falling, single point]"
COc1ccc(CNC(=O)C2CCNCC2)cc1,-26.2,–,–
N#Cc1ccccc1Cn1c(=O)oc2ccccc21,-12.4,–,"0.00517 µM [falling, full curve, poor fit]"
CC(=O)c1cccc(S(=O)(=O)N2CCN(CCOc3ccccc3)CC2)c1,1.03,–,"1.03 µM [falling, partial curve]"
